No constants are given. Whether binding was seen depends on the method and setting. Some entries that bind do so weakly or less than the wild type. Sequences can lack the tags named with a protein.
Experiments:
[1] = target: T1, GST-hMSTN 21-120aa (human) (UniProt O14793); assay: Western blot, GST-tagged fragments
T1 sequence: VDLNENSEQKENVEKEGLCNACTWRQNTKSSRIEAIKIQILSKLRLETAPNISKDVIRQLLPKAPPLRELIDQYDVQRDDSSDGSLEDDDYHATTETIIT

[2] = target: T2, GST-hMSTN 61-160aa (human) (UniProt O14793); assay: Western blot, GST-tagged fragments
T2 sequence: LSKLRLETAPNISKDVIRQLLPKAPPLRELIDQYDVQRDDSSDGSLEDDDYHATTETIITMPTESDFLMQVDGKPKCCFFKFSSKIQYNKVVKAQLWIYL

[3] = target: T3, GST-hMSTN 41-140aa (human) (UniProt O14793); assay: Western blot, GST-tagged fragments
T3 sequence: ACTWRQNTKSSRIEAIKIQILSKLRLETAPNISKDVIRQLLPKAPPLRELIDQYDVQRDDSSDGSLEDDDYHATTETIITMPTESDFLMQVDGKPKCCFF

[4] = target: T4, GST-hMSTN 81-180aa (human); assay: Western blot, GST-tagged fragments
T4 sequence: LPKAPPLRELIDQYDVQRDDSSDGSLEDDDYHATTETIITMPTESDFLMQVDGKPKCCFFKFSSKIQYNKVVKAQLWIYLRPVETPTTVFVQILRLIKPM

[5] = target: T1, GST-hMSTN 21-120aa (human); assay: drawn table summarising the Western blots of Figure 22C (filled cell = fragment detected)
[6] = target: T2, GST-hMSTN 61-160aa (human); assay: as above
[7] = target: T3, GST-hMSTN 41-140aa (human); assay: as above
[8] = target: T4, GST-hMSTN 81-180aa (human); assay: as above
[9] = target: T2, GST-hMSTN 61-160aa (human); assay: Western blot with the antibody as probe on GST-tagged 100-amino-acid fragments of the human latent myostatin propeptide expressed in E. coli BL21 (lanes 1-8), GST control (lane 9) and human latent myostatin 100 ng (lane 10)
[10] = target: T3, GST-hMSTN 41-140aa (human); assay: as above
[11] = target: T4, GST-hMSTN 81-180aa (human); assay: as above

Measured: binding

B1: MS_MST1032Ha-G1m/MST1032La-k0MC (antibody, human IgG1, kappa, V domains shown)
VH: QSLEESGGRLVTPGGSLTVTCRVSGIDLSSYDISWVRQAPGKGLEWIGIISYAGSTYYASWAKGRFTISKTSTTVDLKMTSLTTEDTATYFCARGVPAYSTGGDLWGPGTLVTVSS
VL: AQVLTQTASSVSAAVGGTVTINCQSSQSVYDNNWLSWFQQKPGQPPKLLIYWASTLASGVPSRFKGSGSGTQFTLTISDLECDDAATYYCAGGYGGGLYAFGGGTKVEIKR
binds: [1] | [2] | [3] | [4] | [5] | [6] | [7] | [8] | [9] | [10] | [11]

— US20250076311A1
